The supplement of paper PMC12819154, “High-throughput peptide-centric local stability assay extends protein–ligand identification to membrane proteins, tissues and bacteria” (Nature Structural & Molecular Biology, 2025)
The list shows a part of the results. Most entries show no effect beyond the scatter of the controls.

Chains of the proteins cited; added tags and fusions are not shown. Lines headed by an entry give the natural chain unless they say otherwise; changes in a name come on top.
UniProt O94913, whole entry: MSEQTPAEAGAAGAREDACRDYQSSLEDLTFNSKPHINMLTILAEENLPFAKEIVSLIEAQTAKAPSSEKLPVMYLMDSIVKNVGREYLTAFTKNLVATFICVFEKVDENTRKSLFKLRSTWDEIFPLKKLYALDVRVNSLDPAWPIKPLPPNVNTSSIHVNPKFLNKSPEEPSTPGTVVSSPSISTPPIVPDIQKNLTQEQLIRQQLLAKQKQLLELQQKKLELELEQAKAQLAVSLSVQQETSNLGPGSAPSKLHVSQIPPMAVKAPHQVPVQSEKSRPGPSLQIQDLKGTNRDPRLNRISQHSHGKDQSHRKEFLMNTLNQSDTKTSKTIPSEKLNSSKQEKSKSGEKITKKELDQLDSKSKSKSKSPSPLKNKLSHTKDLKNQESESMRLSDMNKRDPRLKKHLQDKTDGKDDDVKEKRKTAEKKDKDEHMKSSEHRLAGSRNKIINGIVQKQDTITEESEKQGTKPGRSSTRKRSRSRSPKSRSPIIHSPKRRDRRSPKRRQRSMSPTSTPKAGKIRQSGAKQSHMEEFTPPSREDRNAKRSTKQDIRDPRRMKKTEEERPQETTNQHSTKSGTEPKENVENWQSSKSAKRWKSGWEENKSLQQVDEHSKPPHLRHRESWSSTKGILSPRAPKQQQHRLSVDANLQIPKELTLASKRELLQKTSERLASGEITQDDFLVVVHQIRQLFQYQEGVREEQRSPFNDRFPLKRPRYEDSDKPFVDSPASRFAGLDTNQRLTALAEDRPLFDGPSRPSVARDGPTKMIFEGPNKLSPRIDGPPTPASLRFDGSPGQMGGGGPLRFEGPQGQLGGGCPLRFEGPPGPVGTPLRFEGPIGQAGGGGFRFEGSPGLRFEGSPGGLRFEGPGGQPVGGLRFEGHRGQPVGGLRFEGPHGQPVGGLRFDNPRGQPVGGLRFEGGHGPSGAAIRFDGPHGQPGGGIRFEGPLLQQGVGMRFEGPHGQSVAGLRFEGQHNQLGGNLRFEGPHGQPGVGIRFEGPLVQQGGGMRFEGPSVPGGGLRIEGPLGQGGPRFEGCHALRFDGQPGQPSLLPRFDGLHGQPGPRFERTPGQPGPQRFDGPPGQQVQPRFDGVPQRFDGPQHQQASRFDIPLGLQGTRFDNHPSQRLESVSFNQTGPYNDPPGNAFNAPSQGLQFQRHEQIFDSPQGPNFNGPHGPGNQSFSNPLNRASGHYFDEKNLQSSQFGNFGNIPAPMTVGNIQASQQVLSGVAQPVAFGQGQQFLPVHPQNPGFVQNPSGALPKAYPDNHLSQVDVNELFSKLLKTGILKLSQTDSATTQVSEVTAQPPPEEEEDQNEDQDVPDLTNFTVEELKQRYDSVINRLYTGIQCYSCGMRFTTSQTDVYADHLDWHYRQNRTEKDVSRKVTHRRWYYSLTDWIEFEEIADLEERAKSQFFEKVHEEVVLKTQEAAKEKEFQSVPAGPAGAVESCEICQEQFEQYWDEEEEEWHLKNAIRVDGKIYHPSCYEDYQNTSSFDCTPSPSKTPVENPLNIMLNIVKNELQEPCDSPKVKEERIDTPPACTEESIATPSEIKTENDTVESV
UniProt O75444: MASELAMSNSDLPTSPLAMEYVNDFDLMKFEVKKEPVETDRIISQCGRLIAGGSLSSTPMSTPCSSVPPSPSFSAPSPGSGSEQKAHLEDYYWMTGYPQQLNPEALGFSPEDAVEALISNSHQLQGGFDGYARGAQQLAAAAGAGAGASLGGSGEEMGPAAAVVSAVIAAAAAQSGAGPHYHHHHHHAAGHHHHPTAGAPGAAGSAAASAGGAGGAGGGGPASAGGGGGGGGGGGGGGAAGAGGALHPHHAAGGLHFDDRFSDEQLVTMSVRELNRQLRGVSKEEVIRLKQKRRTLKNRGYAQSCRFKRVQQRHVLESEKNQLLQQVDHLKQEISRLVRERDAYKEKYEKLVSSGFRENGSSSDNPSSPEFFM
UniProt O75506: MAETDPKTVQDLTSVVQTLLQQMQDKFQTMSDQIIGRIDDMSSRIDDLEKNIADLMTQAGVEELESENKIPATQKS
UniProt O75818: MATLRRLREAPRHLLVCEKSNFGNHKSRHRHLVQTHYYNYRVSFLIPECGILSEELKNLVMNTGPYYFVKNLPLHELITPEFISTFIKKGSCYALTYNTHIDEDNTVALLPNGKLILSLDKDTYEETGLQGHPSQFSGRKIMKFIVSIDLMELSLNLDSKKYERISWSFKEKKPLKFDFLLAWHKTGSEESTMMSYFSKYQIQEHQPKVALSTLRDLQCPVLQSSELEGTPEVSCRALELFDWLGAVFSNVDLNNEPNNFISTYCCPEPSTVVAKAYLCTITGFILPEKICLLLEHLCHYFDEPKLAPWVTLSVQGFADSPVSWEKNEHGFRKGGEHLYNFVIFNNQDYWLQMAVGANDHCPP
UniProt O95248: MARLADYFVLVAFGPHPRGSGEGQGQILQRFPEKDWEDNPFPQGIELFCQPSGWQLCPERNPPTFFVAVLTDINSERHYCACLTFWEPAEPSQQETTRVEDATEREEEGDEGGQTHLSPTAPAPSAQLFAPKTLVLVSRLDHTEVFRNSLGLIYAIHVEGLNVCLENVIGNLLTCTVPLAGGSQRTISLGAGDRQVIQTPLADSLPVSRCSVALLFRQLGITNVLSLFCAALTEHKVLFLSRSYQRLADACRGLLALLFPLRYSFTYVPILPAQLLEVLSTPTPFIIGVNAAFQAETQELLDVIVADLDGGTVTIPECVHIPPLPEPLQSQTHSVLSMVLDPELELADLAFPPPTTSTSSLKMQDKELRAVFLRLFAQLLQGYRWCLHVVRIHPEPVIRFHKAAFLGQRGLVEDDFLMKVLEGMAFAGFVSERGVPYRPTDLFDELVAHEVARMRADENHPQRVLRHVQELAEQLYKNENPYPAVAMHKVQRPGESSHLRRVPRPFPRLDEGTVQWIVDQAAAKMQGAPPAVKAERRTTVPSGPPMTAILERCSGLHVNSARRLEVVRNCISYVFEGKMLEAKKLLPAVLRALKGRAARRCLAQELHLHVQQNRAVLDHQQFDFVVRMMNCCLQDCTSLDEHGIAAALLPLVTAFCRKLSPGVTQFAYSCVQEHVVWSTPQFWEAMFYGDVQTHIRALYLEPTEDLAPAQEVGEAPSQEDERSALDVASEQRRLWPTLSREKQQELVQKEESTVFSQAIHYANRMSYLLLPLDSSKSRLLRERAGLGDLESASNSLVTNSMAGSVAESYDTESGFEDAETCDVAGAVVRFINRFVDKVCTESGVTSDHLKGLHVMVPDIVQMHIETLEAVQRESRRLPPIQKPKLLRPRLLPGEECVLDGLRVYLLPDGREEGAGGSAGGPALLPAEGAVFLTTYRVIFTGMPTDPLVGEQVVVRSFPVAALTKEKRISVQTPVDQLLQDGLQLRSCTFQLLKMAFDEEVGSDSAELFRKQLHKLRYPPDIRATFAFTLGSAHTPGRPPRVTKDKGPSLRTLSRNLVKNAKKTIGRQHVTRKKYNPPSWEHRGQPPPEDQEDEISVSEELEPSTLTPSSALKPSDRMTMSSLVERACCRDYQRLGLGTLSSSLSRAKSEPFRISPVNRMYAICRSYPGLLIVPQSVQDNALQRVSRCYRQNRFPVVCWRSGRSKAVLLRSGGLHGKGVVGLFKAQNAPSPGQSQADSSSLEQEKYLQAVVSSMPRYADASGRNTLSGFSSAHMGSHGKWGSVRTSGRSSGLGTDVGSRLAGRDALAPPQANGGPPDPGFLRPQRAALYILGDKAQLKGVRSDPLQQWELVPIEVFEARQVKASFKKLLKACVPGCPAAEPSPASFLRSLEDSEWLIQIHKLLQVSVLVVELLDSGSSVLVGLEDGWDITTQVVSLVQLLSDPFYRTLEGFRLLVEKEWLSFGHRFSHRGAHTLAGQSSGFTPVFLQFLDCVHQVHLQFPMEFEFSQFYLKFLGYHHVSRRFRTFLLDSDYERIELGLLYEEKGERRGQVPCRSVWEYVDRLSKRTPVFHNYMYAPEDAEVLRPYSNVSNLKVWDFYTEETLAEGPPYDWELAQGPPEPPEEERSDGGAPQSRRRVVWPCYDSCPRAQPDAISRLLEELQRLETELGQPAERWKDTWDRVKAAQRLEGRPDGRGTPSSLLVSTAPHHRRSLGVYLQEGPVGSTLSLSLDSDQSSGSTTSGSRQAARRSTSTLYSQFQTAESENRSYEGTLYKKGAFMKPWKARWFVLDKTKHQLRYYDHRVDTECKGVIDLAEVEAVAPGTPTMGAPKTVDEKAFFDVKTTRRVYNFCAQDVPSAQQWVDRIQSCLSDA
UniProt O75674: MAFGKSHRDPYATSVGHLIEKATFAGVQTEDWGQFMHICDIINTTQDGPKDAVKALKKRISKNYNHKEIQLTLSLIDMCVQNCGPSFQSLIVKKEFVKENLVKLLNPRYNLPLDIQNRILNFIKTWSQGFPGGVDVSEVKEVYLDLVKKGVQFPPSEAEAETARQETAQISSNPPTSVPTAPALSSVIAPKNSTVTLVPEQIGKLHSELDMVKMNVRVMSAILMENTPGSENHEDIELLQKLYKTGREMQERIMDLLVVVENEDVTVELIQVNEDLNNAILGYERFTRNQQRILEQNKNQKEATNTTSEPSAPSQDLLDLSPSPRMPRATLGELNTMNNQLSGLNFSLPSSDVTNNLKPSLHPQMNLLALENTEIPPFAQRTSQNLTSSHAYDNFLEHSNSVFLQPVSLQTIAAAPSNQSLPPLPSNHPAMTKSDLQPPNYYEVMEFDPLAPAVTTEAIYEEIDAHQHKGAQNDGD
UniProt O95235: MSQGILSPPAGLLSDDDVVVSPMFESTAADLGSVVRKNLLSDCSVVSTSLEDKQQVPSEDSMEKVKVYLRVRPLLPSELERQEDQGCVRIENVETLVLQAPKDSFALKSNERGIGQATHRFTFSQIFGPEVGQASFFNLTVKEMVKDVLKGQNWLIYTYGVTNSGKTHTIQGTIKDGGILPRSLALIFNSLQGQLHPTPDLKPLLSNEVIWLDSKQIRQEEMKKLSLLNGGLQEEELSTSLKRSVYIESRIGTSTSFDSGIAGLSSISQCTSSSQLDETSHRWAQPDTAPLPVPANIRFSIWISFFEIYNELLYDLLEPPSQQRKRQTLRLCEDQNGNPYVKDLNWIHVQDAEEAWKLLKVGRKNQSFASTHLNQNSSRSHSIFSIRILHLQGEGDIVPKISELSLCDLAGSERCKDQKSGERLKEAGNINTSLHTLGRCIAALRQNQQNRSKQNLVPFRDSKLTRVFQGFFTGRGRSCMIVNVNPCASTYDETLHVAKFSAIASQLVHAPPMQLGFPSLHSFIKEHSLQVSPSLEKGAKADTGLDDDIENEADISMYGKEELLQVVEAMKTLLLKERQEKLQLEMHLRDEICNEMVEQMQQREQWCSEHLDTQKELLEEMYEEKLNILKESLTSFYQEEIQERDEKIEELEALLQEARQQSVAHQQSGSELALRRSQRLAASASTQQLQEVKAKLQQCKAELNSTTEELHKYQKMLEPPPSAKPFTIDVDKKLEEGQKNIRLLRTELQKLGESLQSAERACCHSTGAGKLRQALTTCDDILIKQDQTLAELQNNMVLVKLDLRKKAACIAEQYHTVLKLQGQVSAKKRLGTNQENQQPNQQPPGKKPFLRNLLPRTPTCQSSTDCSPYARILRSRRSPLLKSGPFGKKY
UniProt O95782: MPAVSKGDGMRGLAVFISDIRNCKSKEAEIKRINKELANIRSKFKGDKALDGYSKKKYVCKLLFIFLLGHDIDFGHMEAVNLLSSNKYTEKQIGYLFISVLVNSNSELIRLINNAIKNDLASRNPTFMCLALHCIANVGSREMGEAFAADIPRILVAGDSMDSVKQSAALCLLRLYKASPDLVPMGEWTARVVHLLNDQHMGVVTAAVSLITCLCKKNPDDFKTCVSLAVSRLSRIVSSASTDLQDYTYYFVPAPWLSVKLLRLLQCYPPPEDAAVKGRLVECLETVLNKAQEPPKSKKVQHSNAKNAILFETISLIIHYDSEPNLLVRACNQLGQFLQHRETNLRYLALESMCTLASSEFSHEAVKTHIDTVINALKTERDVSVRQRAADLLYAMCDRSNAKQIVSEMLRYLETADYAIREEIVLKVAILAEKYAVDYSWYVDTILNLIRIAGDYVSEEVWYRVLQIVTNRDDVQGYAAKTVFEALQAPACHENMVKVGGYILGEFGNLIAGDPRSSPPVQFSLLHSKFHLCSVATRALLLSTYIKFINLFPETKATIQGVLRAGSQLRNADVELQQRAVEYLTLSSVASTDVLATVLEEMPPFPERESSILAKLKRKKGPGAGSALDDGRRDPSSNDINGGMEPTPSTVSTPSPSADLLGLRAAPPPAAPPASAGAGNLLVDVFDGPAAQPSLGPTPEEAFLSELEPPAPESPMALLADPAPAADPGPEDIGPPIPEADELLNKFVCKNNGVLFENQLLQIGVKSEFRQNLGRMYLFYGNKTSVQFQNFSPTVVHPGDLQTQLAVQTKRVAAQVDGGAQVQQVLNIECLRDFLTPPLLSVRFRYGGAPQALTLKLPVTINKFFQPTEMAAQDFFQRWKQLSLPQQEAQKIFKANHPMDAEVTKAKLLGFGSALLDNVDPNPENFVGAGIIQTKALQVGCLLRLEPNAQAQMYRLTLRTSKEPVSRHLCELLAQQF

compound: CN[C@@H]1C[C@H]2O[C@@](C)([C@@H]1OC)n1c3ccccc3c3c4c(c5c6ccccc6n2c5c31)C(=O)NC4 [staurosporine]; assay: log2 fold change of tryptic peptide abundance, ligand vs vehicle (limited proteolysis) (log2 ratio); higher = more trypsin-susceptible (destabilized); details: ligand concentration: 20 uM; sample: K562 cleared lysate; digestion: 4 min, 22 C (HT-PELSA RT4min, Orbitrap Astral)

Question: Which log2 fold change does the source give for “UniProt O75521 (peptide sequence: ATEMLIFGKK, peptide start residue: 296)” here?
Answer: 0.317

Question: “UniProt O95995 (peptide sequence: EQVEEHVSR, peptide start residue: 29)” was tested. Which log2 fold change did it give?
Answer: 0.789

Question: With “PCF11 (peptide sequence: FTTSQTDVYADHLDWHYR, peptide start residue: 1350) (UniProt O94913)” as the target, how does the log2 fold change read?
Answer: -0.42

Question: With “UniProt O75444 (peptide sequence: KEPVETDR, peptide start residue: 34)” as the target, how does the log2 fold change read?
Answer: 0.0742

Question: How did the log2 fold change turn out when “PPP1R15A (peptide sequence: APLSPSLLIR, peptide start residue: 140) (UniProt O75807)” was run?
Answer: 0.608

Question: How did the log2 fold change turn out when “WBP4 (peptide sequence: KFCDYCK, peptide start residue: 11) (UniProt O75554)” was run?
Answer: 0.346

Question: “CS (peptide sequence: DILADLIPK, peptide start residue: 35) (UniProt O75390)” was tested. Which log2 fold change did it give?
Answer: 0.306

Question: With “POP7 (peptide sequence: GAVEAELDPVEYTLRK, peptide start residue: 9) (UniProt O75817)” as the target, how does the log2 fold change read?
Answer: 0.306

Question: “UniProt O75879 (peptide sequence: LGCTMSMR, peptide start residue: 320)” was tested. Which log2 fold change did it give?
Answer: 0.296

Question: “HSBP1 (peptide sequence: FQTMSDQIIGR, peptide start residue: 27) (UniProt O75506)” was tested. Which log2 fold change did it give?
Answer: -0.0218

Question: “MED26 (peptide sequence: LTFDPMTR, peptide start residue: 425) (UniProt O95402)” was tested. Which log2 fold change did it give?
Answer: 0.382

Question: “RPP40 (peptide sequence: HLLVCEK, peptide start residue: 13) (UniProt O75818)” was tested. Which log2 fold change did it give?
Answer: 0.243

Question: “TAF5L (peptide sequence: QYVDSDGPLK, peptide start residue: 21) (UniProt O75529)” was tested. Which log2 fold change did it give?
Answer: -0.000362

Question: Which log2 fold change does the source give for “SBF1 (peptide sequence: GAFMKPWK, peptide start residue: 1773) (UniProt O95248)” here?
Answer: 0.87

Question: Which log2 fold change does the source give for “CTAG2 (peptide sequence: GPHGGAASAQDGRCPCGAR, peptide start residue: 63) (UniProt O75638)” here?
Answer: -0.54

Question: “AHSA1 (peptide sequence: LDGEASINNR, peptide start residue: 64) (UniProt O95433)” was tested. Which log2 fold change did it give?
Answer: 0.553

Question: For “C6orf47 (peptide sequence: WDHVDSGGTR, peptide start residue: 117) (UniProt O95873)”, which log2 fold change is on record?
Answer: 0.115

Question: Which log2 fold change does the source give for “PPM1B (peptide sequence: NGQVCFSTQDHKPCNPR, peptide start residue: 159) (UniProt O75688)” here?
Answer: 0.536

Question: Which log2 fold change does the source give for “UniProt O95382 (peptide sequence: QILQGLGYLHDNHIVHR, peptide start residue: 754)” here?
Answer: -0.74

Question: With “GLRX3 (peptide sequence: ASVMLFMK, peptide start residue: 246) (UniProt O76003)” as the target, how does the log2 fold change read?
Answer: 0.0816

Question: With “FCHSD2 (peptide sequence: SAMNQVMEELENER, peptide start residue: 408) (UniProt O94868)” as the target, how does the log2 fold change read?
Answer: 0.599

Question: For “POLR1A (peptide sequence: DFNMIDLK, peptide start residue: 857) (UniProt O95602)”, which log2 fold change is on record?
Answer: 0.584

Question: “WDHD1 (peptide sequence: AYSCALKSGK, peptide start residue: 57) (UniProt O75717)” was tested. Which log2 fold change did it give?
Answer: 0.745

Question: How did the log2 fold change turn out when “TOM1L1 (peptide sequence: ILEQNKNQK, peptide start residue: 293) (UniProt O75674)” was run?
Answer: 0.363

Question: Which log2 fold change does the source give for “KIF20A (peptide sequence: LKEAGNINTSLHTLGR, peptide start residue: 424) (UniProt O95235)” here?
Answer: -0.273

Question: How did the log2 fold change turn out when “AP2A1 (peptide sequence: YGGAPQALTLK, peptide start residue: 846) (UniProt O95782)” was run?
Answer: 0.739

Question: “CAVIN2 (peptide sequence: GEDAAQAEK, peptide start residue: 2) (UniProt O95810)” was tested. Which log2 fold change did it give?
Answer: -0.468

Question: How did the log2 fold change turn out when “LRCH4 (peptide sequence: IPVSFCR, peptide start residue: 219) (UniProt O75427)” was run?
Answer: 0.331

Question: Which log2 fold change does the source give for “UniProt O95551 (peptide sequence: ALNSYFEPPVEESALER, peptide start residue: 57)” here?
Answer: -0.2
